The chains behind the UniProt entries cited, without tags or fusion partners.
UniProt Q14469: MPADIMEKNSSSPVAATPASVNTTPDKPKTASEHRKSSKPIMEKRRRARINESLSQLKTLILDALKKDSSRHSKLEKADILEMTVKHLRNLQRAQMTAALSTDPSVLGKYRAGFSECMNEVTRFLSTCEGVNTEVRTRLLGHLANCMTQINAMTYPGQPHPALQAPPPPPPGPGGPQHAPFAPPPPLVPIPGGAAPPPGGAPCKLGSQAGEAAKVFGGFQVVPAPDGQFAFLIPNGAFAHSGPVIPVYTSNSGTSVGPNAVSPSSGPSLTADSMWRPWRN
UniProt O75592: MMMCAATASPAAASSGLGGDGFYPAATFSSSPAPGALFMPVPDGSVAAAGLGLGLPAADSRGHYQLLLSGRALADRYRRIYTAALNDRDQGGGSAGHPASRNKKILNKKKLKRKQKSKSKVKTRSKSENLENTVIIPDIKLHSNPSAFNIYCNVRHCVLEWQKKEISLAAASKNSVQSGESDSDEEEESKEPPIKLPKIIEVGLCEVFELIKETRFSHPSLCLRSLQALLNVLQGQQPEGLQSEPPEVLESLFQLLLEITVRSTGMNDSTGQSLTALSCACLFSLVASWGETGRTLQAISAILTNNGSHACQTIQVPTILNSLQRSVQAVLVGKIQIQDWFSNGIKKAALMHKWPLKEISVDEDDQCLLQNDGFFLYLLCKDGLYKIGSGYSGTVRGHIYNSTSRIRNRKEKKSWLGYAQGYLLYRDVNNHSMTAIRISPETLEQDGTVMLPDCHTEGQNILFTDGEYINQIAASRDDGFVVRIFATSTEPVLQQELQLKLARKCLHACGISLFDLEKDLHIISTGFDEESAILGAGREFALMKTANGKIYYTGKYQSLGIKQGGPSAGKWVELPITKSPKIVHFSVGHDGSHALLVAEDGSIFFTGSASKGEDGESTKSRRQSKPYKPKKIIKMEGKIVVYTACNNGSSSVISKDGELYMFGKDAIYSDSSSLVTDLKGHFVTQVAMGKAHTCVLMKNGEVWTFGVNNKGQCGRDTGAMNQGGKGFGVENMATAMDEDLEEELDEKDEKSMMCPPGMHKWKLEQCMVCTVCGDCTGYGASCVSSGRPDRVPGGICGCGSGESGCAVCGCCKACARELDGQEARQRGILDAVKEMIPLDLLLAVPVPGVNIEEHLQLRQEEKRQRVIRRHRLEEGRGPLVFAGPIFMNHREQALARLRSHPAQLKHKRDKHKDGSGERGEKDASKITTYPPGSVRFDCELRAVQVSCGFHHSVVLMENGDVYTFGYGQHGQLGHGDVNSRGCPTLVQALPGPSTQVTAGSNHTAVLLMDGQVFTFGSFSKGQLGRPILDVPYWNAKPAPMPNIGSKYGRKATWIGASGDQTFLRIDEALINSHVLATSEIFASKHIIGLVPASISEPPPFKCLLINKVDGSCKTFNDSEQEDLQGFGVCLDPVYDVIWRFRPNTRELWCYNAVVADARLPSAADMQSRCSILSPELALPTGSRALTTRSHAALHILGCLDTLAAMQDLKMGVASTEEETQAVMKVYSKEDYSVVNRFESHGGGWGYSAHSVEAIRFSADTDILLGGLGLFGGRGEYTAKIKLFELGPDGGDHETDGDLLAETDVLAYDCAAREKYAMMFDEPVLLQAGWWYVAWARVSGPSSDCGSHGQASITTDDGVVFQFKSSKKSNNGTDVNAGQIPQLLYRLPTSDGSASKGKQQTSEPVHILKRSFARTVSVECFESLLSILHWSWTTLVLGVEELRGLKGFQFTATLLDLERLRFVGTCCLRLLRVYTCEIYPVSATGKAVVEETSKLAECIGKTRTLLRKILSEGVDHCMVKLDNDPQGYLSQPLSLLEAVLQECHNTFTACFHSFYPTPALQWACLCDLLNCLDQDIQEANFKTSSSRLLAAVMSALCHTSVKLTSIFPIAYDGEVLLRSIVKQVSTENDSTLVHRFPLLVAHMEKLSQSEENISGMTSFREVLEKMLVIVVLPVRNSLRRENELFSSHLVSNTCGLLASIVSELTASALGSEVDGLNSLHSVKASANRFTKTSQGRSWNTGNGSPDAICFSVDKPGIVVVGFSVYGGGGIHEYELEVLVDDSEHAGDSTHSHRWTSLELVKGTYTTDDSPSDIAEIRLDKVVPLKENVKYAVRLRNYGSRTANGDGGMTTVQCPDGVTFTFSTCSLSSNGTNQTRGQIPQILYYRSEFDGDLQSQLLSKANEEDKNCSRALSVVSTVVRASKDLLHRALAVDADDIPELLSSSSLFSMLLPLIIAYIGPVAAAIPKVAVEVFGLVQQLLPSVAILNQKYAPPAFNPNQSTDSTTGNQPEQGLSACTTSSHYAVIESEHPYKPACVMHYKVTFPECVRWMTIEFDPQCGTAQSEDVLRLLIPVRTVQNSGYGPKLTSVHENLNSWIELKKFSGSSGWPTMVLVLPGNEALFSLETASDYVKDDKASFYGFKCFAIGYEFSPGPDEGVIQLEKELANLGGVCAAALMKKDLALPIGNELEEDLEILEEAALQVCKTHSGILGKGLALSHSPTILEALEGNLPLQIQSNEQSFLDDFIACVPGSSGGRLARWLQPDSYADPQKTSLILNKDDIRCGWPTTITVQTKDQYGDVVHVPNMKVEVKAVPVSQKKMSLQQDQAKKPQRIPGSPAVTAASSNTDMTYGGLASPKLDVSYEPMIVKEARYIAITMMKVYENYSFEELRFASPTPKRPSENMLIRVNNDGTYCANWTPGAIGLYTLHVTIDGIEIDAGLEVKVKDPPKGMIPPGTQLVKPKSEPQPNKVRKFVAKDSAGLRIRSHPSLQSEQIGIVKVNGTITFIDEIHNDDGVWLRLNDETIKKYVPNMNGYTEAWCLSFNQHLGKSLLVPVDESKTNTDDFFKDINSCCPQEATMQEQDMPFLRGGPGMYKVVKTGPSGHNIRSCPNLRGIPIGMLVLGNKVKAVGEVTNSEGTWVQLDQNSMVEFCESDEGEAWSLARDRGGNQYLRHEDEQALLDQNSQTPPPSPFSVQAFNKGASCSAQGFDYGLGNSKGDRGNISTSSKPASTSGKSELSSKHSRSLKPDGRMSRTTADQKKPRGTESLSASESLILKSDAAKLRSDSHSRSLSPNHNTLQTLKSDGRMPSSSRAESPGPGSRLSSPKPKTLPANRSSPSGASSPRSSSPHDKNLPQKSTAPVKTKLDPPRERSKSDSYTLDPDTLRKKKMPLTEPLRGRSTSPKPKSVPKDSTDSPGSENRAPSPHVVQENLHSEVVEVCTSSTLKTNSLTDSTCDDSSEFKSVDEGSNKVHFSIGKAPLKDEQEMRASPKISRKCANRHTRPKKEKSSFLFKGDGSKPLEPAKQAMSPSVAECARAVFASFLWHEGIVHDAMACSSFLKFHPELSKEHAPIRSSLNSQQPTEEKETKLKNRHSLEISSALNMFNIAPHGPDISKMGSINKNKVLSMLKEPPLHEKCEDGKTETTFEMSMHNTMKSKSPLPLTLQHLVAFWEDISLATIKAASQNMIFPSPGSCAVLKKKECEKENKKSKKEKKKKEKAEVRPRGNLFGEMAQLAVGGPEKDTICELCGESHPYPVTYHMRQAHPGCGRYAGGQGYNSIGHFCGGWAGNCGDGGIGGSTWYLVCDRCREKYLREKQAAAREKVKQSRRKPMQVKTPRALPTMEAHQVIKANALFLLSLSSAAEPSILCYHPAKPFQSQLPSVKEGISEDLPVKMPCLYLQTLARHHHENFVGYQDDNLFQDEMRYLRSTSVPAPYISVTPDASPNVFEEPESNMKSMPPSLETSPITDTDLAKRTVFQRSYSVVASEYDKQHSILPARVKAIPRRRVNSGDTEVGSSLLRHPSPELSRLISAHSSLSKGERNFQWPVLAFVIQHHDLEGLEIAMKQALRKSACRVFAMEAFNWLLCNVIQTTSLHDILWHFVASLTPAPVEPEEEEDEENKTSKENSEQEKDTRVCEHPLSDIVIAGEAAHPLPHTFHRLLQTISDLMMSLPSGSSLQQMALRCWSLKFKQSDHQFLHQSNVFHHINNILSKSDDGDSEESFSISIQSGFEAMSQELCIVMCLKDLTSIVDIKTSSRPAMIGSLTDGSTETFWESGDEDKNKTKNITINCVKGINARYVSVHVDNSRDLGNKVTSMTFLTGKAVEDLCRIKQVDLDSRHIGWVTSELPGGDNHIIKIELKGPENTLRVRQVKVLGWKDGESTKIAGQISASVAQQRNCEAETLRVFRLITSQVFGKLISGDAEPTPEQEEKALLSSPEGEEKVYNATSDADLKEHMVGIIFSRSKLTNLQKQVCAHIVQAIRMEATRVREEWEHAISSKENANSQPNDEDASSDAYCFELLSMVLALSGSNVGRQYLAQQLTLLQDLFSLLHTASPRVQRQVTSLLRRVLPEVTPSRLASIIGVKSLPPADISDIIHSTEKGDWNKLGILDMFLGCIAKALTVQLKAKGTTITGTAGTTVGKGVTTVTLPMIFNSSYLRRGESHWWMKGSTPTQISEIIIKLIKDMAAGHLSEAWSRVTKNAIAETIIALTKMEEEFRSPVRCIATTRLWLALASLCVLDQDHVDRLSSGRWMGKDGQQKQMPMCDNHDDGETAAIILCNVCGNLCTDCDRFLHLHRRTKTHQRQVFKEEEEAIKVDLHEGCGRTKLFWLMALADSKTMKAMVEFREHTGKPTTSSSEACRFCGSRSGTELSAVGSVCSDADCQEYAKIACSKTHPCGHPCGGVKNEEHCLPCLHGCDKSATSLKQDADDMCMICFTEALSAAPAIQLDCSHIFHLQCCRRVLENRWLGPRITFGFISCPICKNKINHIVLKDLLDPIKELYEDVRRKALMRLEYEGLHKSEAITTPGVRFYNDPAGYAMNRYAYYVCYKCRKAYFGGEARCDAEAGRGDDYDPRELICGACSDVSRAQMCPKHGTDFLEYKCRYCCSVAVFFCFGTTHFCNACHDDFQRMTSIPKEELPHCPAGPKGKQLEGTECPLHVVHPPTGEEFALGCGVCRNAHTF

In PMC4466309:

T1: Flag-Strep (FS)-Hey1 (UniProt Q9WV93)
T1 sequence: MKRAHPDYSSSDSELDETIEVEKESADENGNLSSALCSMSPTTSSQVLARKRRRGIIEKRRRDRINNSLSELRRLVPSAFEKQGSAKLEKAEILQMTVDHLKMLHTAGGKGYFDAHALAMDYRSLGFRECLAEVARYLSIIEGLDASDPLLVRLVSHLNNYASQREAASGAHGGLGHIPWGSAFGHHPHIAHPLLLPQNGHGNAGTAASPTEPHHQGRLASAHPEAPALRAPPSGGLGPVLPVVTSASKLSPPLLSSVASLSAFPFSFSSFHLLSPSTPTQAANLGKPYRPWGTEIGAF

B1: FBXO45 (F-box protein 45), endogenous (protein, UniProt P0C2W1 1-286)
chain: MAAPAPGAGAASGGAGCSGGGAGAGAGSGSGAAGAGGRLPSRVLELVFSYLELSELRSCALVCKHWYRCLHGDENSEVWRSLCARSLAEEALRTDILCNLPSYKAKIRAFQHAFSTNDCSRNVYIKKNGFTLHRNPIAQSTDGARTKIGFSEGRHAWEVWWEGPLGTVAVIGIATKRAPMQCQGYVALLGSDDQSWGWNLVDNNLLHNGEVNGSFPQCNNAPKYQIGERIRVILDMEDKTLAFERGYEFLGVAFRGLPKVCLYPAVSAVYGNTEVTLVYLGKPLDG

The molecules below were run against T1, Flag-Strep (FS)-Hey1 (assay: affinity purification with mass spectrometry; tandem affinity purification of FS-Hey1 (anti-Flag M2 gel, Flag peptide elution, then StrepTactin beads, desthiobiotin elution) from whole cell lysates and nuclear extracts of Dox-induced 293tet-FS-Hey1 cells; non-induced cells as negative control; LC-MS/MS of gel slices).

binding, binds:
HES1 (Hairy and enhancer of split 1 isoform 1) (from UniProt Q14469 1-280)
PAM (Protein Associated with Myc, MYCBP2) (from UniProt O75592 1-4678)
B1

No constants are given. Whether binding was seen depends on the method and setting. Binding seen in cells or lysates may run through a third protein. Here binding means that the protein was enriched with, or labelled near, the bait; the list need not be complete. Sequences can lack the tags named with a protein.
